The source of these data is article PMC4357696.

Sequences of proteins named here, by UniProt entry; tags and fusion partners are left off.
UniProt P15873: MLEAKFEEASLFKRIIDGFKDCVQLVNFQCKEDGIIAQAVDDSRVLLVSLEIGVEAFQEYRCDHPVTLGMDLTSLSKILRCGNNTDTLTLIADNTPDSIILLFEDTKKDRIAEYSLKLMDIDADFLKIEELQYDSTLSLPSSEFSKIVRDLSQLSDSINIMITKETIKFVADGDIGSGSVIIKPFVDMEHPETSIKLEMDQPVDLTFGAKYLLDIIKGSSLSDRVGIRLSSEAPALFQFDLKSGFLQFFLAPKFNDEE

These are yes or no findings as the source states them, for the method shown. Some binding calls cover weakened binding; strength is not graded here. Where a sequence is shown, tags or fusion partners need not be part of it.

Holding throughout (test): two-hybrid; yeast two-hybrid, Gal4 AD and BD fusions expressed from low-copy-number plasmids (CEN-based)
Assay [1] has as its target PCNA, Gal4 DNA-binding domain fusion (pOBD-POL30, pXZ373) (budding yeast) (UniProt P15873).
For assay [2], the target named is T1, Rev1, Gal4 DNA-binding domain fusion (pOBD-REV1, pXZ442) (budding yeast) (UniProt P12689).
T1 sequence: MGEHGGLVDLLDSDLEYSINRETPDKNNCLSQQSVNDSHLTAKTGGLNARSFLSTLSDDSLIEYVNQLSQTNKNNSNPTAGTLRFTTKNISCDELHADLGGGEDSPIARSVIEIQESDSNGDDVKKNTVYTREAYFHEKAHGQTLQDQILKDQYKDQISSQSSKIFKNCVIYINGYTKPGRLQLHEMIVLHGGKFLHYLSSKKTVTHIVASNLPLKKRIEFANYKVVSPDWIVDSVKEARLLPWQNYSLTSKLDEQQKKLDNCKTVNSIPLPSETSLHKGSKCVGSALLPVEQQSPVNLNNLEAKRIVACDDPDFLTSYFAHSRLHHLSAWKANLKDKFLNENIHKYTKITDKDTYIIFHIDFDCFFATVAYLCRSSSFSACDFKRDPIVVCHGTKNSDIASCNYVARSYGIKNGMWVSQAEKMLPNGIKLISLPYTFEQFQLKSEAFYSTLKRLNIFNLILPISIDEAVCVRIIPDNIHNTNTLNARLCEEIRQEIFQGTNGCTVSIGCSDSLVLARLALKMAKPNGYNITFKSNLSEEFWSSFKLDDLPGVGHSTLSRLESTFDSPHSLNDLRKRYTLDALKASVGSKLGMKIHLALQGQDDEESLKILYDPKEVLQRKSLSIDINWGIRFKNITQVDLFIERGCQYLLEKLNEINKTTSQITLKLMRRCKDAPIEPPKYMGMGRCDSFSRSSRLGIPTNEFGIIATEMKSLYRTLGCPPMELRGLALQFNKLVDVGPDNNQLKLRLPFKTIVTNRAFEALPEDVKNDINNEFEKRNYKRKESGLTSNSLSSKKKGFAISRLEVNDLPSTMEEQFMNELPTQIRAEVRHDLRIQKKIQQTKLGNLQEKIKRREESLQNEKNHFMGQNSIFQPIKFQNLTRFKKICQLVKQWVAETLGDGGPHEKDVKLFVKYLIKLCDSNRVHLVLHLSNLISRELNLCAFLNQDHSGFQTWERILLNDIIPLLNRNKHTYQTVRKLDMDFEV

Assay [3] addresses T2, Ubc13, Gal4 DNA-binding domain fusion (pOBD-UBC13, pXZ386) (budding yeast) (UniProt P52490).
T2 sequence: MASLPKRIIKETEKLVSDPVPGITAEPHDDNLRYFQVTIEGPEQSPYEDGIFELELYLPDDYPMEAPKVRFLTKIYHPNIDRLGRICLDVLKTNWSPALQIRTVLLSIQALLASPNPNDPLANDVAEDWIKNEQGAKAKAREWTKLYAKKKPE

B1: Rad5, Gal4 activation domain fusion (pOAD-RAD5, pXZ388) (protein, UniProt P32849 1-1169)
chain: MSHIEQEERKRFFNDDLDTSETSLNFKSENKESFLFANSHNDDDDDVVVSVSDTTEGEGDRSIVPVRREIEEEGQNQFITELLRIIPEMPKDLVMELNEKFGSQEEGLSLALSHYFDHNSGTSISKIPSSPNQLNTLSDTSNSTLSPSSFHPKRRRIYGFRNQTRLEDKVTWKRFIGALQVTGMATRPTVRPLKYGSQMKLKRSSEEISATKVYDSRGRKKASMASLVRIFDIQYDREIGRVSEDIAQILYPLLSSHEISFEVTLIFCDNKRLSIGDSFILQLDCFLTSLIFEERNDGESLMKRRRTEGGNKREKDNGNFGRTLTETDEELESRSKRLALLKLFDKLRLKPILDEQKALEKHKIELNSDPEIIDLDNDEICSNQVTEVHNNLRDTQHEEETMNLNQLKTFYKAAQSSESLKSLPETEPSRDVFKLELRNYQKQGLTWMLRREQEFAKAASDGEASETGANMINPLWKQFKWPNDMSWAAQNLQQDHVNVEDGIFFYANLHSGEFSLAKPILKTMIKGGILSDEMGLGKTVAAYSLVLSCPHDSDVVDKKLFDIENTAVSDNLPSTWQDNKKPYASKTTLIVVPMSLLTQWSNEFTKANNSPDMYHEVYYGGNVSSLKTLLTKTKTPPTVVLTTYGIVQNEWTKHSKGRMTDEDVNISSGLFSVNFYRIIIDEGHNIRNRTTVTSKAVMALQGKCKWVLTGTPIINRLDDLYSLVKFLELDPWRQINYWKTFVSTPFESKNYKQAFDVVNAILEPVLLRRTKQMKDKDGKPLVELPPKEVVIKRLPFSKSQDLLYKFLLDKAEVSVKSGIARGDLLKKYSTILVHILRLRQVCCHPGLIGSQDENDEDLSKNNKLVTEQTVELDSLMRVVSERFDNSFSKEELDAMIQRLKVKYPDNKSFQSLECSICTTEPMDLDKALFTECGHSFCEKCLFEYIEFQNSKNLGLKCPNCRNQIDACRLLALVQTNSNSKNLEFKPYSPASKSSKITALLKELQLLQDSSAGEQVVIFSQFSTYLDILEKELTHTFSKDVAKIYKFDGRLSLKERTSVLADFAVKDYSRQKILLLSLKAGGVGLNLTCASHAYMMDPWWSPSMEDQAIDRLHRIGQTNSVKVMRFIIQDSIEEKMLRIQEKKRTIGEAMDTDEDERRKRRIEEIQMLFE
Turning to B1, the binding entry in assay [1], in assay [2] and in assay [3] was “binds” in each case.

B2: rad5-AA (D681A, E682A), Gal4 activation domain fusion (pOAD-rad5-AA, pXZ571) (protein, UniProt P32849 1-1169)
chain: MSHIEQEERKRFFNDDLDTSETSLNFKSENKESFLFANSHNDDDDDVVVSVSDTTEGEGDRSIVPVRREIEEEGQNQFITELLRIIPEMPKDLVMELNEKFGSQEEGLSLALSHYFDHNSGTSISKIPSSPNQLNTLSDTSNSTLSPSSFHPKRRRIYGFRNQTRLEDKVTWKRFIGALQVTGMATRPTVRPLKYGSQMKLKRSSEEISATKVYDSRGRKKASMASLVRIFDIQYDREIGRVSEDIAQILYPLLSSHEISFEVTLIFCDNKRLSIGDSFILQLDCFLTSLIFEERNDGESLMKRRRTEGGNKREKDNGNFGRTLTETDEELESRSKRLALLKLFDKLRLKPILDEQKALEKHKIELNSDPEIIDLDNDEICSNQVTEVHNNLRDTQHEEETMNLNQLKTFYKAAQSSESLKSLPETEPSRDVFKLELRNYQKQGLTWMLRREQEFAKAASDGEASETGANMINPLWKQFKWPNDMSWAAQNLQQDHVNVEDGIFFYANLHSGEFSLAKPILKTMIKGGILSDEMGLGKTVAAYSLVLSCPHDSDVVDKKLFDIENTAVSDNLPSTWQDNKKPYASKTTLIVVPMSLLTQWSNEFTKANNSPDMYHEVYYGGNVSSLKTLLTKTKTPPTVVLTTYGIVQNEWTKHSKGRMTDEDVNISSGLFSVNFYRIIIAAGHNIRNRTTVTSKAVMALQGKCKWVLTGTPIINRLDDLYSLVKFLELDPWRQINYWKTFVSTPFESKNYKQAFDVVNAILEPVLLRRTKQMKDKDGKPLVELPPKEVVIKRLPFSKSQDLLYKFLLDKAEVSVKSGIARGDLLKKYSTILVHILRLRQVCCHPGLIGSQDENDEDLSKNNKLVTEQTVELDSLMRVVSERFDNSFSKEELDAMIQRLKVKYPDNKSFQSLECSICTTEPMDLDKALFTECGHSFCEKCLFEYIEFQNSKNLGLKCPNCRNQIDACRLLALVQTNSNSKNLEFKPYSPASKSSKITALLKELQLLQDSSAGEQVVIFSQFSTYLDILEKELTHTFSKDVAKIYKFDGRLSLKERTSVLADFAVKDYSRQKILLLSLKAGGVGLNLTCASHAYMMDPWWSPSMEDQAIDRLHRIGQTNSVKVMRFIIQDSIEEKMLRIQEKKRTIGEAMDTDEDERRKRRIEEIQMLFE
As for B2, in assay [2], the binding entry is recorded as “binds”.
